Measurements from paper doi:10.1101/112466.
Results are given in words; binding and its absence hold for the method and conditions named. Binding seen in cells or lysates may run through a third protein. Some results given as binding are weak or reduced against the parent protein; the word gives no strength. Blank lines part the entries; values can stand above or below the substance they belong to.

Amino acid sequences for entries named in this document (tags omitted). A change or cut given only in a name is not applied to a line headed by its entry. Residues count along the entry.
UniProt O95136: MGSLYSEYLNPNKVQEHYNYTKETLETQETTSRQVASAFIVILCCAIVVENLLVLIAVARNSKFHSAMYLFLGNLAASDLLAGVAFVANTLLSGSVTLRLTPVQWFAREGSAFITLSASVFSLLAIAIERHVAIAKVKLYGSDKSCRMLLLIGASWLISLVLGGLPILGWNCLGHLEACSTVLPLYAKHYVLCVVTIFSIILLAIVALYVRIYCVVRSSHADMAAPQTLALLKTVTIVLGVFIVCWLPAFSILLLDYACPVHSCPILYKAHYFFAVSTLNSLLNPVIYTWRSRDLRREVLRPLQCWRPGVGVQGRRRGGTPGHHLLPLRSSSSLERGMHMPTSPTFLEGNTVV
UniProt Q9H228: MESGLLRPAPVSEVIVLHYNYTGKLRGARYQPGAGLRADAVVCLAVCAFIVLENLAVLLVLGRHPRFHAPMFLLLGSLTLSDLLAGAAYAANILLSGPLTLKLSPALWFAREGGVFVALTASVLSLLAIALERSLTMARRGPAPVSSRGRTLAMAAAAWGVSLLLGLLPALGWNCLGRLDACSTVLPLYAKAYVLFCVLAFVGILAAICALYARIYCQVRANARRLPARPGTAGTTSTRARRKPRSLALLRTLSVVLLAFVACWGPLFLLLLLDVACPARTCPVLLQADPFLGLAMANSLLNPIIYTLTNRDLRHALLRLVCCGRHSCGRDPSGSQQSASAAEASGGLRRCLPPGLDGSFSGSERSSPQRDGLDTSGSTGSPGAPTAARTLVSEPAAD
UniProt Q9BXB1, residues 25-951: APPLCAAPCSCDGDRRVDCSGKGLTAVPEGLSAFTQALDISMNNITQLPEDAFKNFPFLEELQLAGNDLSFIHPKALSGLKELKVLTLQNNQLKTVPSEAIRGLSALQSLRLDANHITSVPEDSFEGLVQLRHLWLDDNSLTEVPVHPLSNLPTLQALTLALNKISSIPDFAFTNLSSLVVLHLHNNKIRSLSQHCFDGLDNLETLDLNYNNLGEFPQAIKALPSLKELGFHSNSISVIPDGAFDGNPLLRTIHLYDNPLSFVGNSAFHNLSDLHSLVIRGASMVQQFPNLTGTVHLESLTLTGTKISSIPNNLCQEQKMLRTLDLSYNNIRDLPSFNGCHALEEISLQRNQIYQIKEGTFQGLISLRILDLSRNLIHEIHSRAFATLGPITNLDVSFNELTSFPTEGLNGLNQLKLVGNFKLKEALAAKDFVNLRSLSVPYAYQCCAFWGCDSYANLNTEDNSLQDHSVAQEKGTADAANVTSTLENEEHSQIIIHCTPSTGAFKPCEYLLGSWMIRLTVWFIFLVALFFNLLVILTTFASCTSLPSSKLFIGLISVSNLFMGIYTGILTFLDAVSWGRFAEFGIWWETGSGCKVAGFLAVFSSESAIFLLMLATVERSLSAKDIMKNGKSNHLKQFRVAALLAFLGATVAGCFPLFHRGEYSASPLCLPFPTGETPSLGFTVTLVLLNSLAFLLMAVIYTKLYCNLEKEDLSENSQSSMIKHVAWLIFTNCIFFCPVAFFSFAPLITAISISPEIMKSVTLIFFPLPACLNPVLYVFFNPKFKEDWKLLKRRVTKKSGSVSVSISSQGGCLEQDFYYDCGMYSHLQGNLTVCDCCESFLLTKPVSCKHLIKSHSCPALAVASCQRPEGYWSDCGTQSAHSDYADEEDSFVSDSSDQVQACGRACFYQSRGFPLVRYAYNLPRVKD
UniProt P18825: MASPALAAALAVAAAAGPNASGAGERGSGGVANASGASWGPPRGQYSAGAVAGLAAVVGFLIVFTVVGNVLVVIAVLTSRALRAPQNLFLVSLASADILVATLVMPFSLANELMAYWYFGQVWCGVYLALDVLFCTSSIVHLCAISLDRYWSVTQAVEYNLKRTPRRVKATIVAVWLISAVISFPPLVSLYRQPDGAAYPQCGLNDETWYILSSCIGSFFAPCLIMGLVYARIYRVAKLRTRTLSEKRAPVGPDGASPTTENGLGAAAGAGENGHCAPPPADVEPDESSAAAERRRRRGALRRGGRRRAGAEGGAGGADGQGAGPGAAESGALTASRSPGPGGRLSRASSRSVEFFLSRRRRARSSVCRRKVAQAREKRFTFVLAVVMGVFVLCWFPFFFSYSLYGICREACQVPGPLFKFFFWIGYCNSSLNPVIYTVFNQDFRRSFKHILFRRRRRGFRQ

Experiments:
Test in all cases: FRET or BRET
[1] = target: S1P receptor S1P2 (human) (UniProt O95136)
[2] = target: S1P receptor S1P5 (human) (UniProt Q9H228)
[3] = target: leucine-rich repeat containing receptor LGR4 (human) (UniProt Q9BXB1)
[4] = target: α2C-adrenergic receptor (human) (UniProt P18825)

- binding [1]: binds
Substance: S1P receptor S1P2 (from UniProt O95136 1-353)

- binding [2]: binds
Substance: S1P receptor S1P5 (from UniProt Q9H228 1-398)

- binding [3]: binds
Substance: leucine-rich repeat containing receptor LGR4 (from UniProt Q9BXB1 25-951)

- binding [4]: binds
Substance: α2C-adrenergic receptor (from UniProt P18825 1-462)
